Measured values published in patent US20070135497A1, “Biphenyl derivative or its salt, and pesticide containing it as an active ingredient” (ISHIHARA SANGYO KAISHA LTD., priority 2003, published 2007).
Some results were stated once for a whole list of compounds, not compound by compound.

Experiments:
[1] = test system: fungi of powdery mildew (wheat powdery mildew); test: Test on preventive effect against wheat powdery mildew; type: in vivo, Wheat (cultivar: Norin-61-go); conditions: foliar spray before inoculation, area of sporogony 6 to 7 days after inoculation
[2] = test system: fungi of downy mildew (cucumber downy mildew); test: Test on preventive effect against cucumber downy mildew; type: in vivo, Cucumber (cultivar: Sagamihanpaku); conditions: 400 ppm, foliar spray before inoculation, area of sporogony 7 days after inoculation
[3] = test system: fungi of powdery mildew (cucumber powdery mildew); test: Test on preventive effect against cucumber powdery mildew; type: in vivo, Cucumber (cultivar: Sagamihanpaku); conditions: foliar spray before inoculation, area of sporogony 6 to 7 days after inoculation

## CCNCc1cccc(-c2c(Cl)cccc2Cl)c1 [1-267]
[1]; 400 ppm
  controlling index: 4 (Area of lesions, number of lesions or area of sporogony is less than 10% of non-treated plot)
[2]
  controlling index: 4 (Area of lesions, number of lesions or area of sporogony is less than 10% of non-treated plot)

## CC(=O)Nc1cccc(-c2c(C)cc(Oc3ccc(C(F)(F)F)cn3)cc2C)c1 [Compound No. 1-56, 3-(2′,6′-dimethyl-4′-(5-trifluoromethyl-2-pyridyl)oxyphenyl)acetanilide]
[2]
  controlling index: 4 (Area of lesions, number of lesions or area of sporogony is less than 10% of non-treated plot)

## CNC(=O)c1cc(-c2c(Cl)cccc2Cl)ccc1F [2-22, N-methyl-3-(2′,6′-dichlorophenyl)-6-fluorobenzamide]
[1]; 400 ppm
  controlling index: 4 (Area of lesions, number of lesions or area of sporogony is less than 10% of non-treated plot)
[3]; 400 ppm
  controlling index: 4 (Area of lesions, number of lesions or area of sporogony is less than 10% of non-treated plot)

## C#CCN(C)C(=O)c1cccc(-c2c(Cl)ccc(C(F)(F)F)c2Cl)c1 [1-123]
[1]; 400 ppm
  controlling index: 4 (Area of lesions, number of lesions or area of sporogony is less than 10% of non-treated plot)
[3]; 400 ppm
  controlling index: 4 (Area of lesions, number of lesions or area of sporogony is less than 10% of non-treated plot)

## CNC(=O)c1cccc(-c2c(Cl)cccc2Cl)c1 [1-30, N-methyl-3-(2′,6′-dichlorophenyl)benzamide]
[1]; 400 ppm
  controlling index: 4 (Area of lesions, number of lesions or area of sporogony is less than 10% of non-treated plot)
[3]; 400 ppm
  controlling index: 4 (Area of lesions, number of lesions or area of sporogony is less than 10% of non-treated plot)

## CN(CCF)C(=O)c1cccc(-c2c(Cl)cccc2Cl)c1 [1-150]
[1]; 400 ppm
  controlling index: 4 (Area of lesions, number of lesions or area of sporogony is less than 10% of non-treated plot)
[3]; 400 ppm
  controlling index: 4 (Area of lesions, number of lesions or area of sporogony is less than 10% of non-treated plot)

## CNCc1cccc(-c2c(C)cc(C)cc2C)c1 [Compound No. 1-27, N-methyl-3-(2′,4′,6′-trimethylphenyl)benzylamine]
[1]; 400 ppm
  controlling index: 4 (Area of lesions, number of lesions or area of sporogony is less than 10% of non-treated plot)
[2]
  controlling index: 4 (Area of lesions, number of lesions or area of sporogony is less than 10% of non-treated plot)

## CN(Cc1ccc(Cl)cc1)C(=O)c1cccc(-c2c(Cl)cccc2Cl)c1 [1-179]
[1]; 400 ppm
  controlling index: 4 (Area of lesions, number of lesions or area of sporogony is less than 10% of non-treated plot)
[3]; 400 ppm
  controlling index: 4 (Area of lesions, number of lesions or area of sporogony is less than 10% of non-treated plot)

## C=C(C)CN(C)C(=O)c1cccc(-c2c(Cl)cccc2Cl)c1 [1-159]
[1]; 400 ppm
  controlling index: 4 (Area of lesions, number of lesions or area of sporogony is less than 10% of non-treated plot)
[3]; 400 ppm
  controlling index: 4 (Area of lesions, number of lesions or area of sporogony is less than 10% of non-treated plot)

## CC(Cl)=CCN(C)C(=O)c1cccc(-c2c(Cl)cccc2Cl)c1 [1-182]
[1]; 400 ppm
  controlling index: 4 (Area of lesions, number of lesions or area of sporogony is less than 10% of non-treated plot)
[3]; 400 ppm
  controlling index: 4 (Area of lesions, number of lesions or area of sporogony is less than 10% of non-treated plot)

## C#CCN(C)C(=O)c1cccc(-c2c(Cl)cccc2Cl)c1 [1-31]
[1]; 400 ppm
  controlling index: 4 (Area of lesions, number of lesions or area of sporogony is less than 10% of non-treated plot)
[3]; 400 ppm
  controlling index: 4 (Area of lesions, number of lesions or area of sporogony is less than 10% of non-treated plot)

## CSc1cc(Cl)c(-c2cccc(N)c2)c(Cl)c1 [Compound No. 1-207, 3-(2′,6′-dichloro-4′-methylthiophenyl)aniline]
[1]; 400 ppm
  controlling index: 4 (Area of lesions, number of lesions or area of sporogony is less than 10% of non-treated plot)
[3]; 400 ppm
  controlling index: 4 (Area of lesions, number of lesions or area of sporogony is less than 10% of non-treated plot)

## CNC(=O)c1cccc(-c2c(Cl)ccc(F)c2Cl)c1 [1-81]
[1]; 400 ppm
  controlling index: 4 (Area of lesions, number of lesions or area of sporogony is less than 10% of non-treated plot)
[3]; 400 ppm
  controlling index: 4 (Area of lesions, number of lesions or area of sporogony is less than 10% of non-treated plot)

## CCN(CC)C(=O)c1cccc(-c2c(C)cc(C)cc2C)c1 [Compound No. 1-1, N,N-diethyl-3-(2′,4′,6′-trimethylphenyl) benzamide]
[1]; 400 ppm
  controlling index: 4 (Area of lesions, number of lesions or area of sporogony is less than 10% of non-treated plot)
[3]; 400 ppm
  controlling index: 4 (Area of lesions, number of lesions or area of sporogony is less than 10% of non-treated plot)

## CN(Cc1ccc(Cl)nc1)C(=O)c1cccc(-c2c(Cl)cccc2Cl)c1 [1-256]
[1]; 400 ppm
  controlling index: 4 (Area of lesions, number of lesions or area of sporogony is less than 10% of non-treated plot)
[3]; 400 ppm
  controlling index: 4 (Area of lesions, number of lesions or area of sporogony is less than 10% of non-treated plot)

## C#CCN(C)C(=O)c1cc(-c2c(Cl)cccc2Cl)ccc1F [2-23]
[1]; 400 ppm
  controlling index: 4 (Area of lesions, number of lesions or area of sporogony is less than 10% of non-treated plot)
[3]; 400 ppm
  controlling index: 4 (Area of lesions, number of lesions or area of sporogony is less than 10% of non-treated plot)

## Clc1cccc(Cl)c1-c1cccc(CNCc2cccnc2)c1 [1-242]
[1]; 400 ppm
  controlling index: 4 (Area of lesions, number of lesions or area of sporogony is less than 10% of non-treated plot)
[3]; 400 ppm
  controlling index: 4 (Area of lesions, number of lesions or area of sporogony is less than 10% of non-treated plot)

## CN(Cc1ccccc1)C(=O)c1cccc(-c2c(Cl)ccc(Cl)c2Cl)c1 [1-236]
[1]; 400 ppm
  controlling index: 4 (Area of lesions, number of lesions or area of sporogony is less than 10% of non-treated plot)
[3]; 400 ppm
  controlling index: 4 (Area of lesions, number of lesions or area of sporogony is less than 10% of non-treated plot)

## C#CCN(C)C(=O)c1cccc(-c2c(Cl)ccc(C)c2F)c1 [1-113]
[1]; 400 ppm
  controlling index: 4 (Area of lesions, number of lesions or area of sporogony is less than 10% of non-treated plot)
[3]; 400 ppm
  controlling index: 4 (Area of lesions, number of lesions or area of sporogony is less than 10% of non-treated plot)

## C#CCN(C)C(=O)c1cccc(-c2c(Cl)ccc(C)c2Cl)c1 [1-88]
[1]; 200 ppm
  controlling index: 4 (Area of lesions, number of lesions or area of sporogony is less than 10% of non-treated plot)
[3]; 200 ppm
  controlling index: 4 (Area of lesions, number of lesions or area of sporogony is less than 10% of non-treated plot)

## Cc1cc(C)c(-c2cccc(C(=O)N(C)CC(C)C)c2)c(C)c1 [1-29]
[1]; 400 ppm
  controlling index: 4 (Area of lesions, number of lesions or area of sporogony is less than 10% of non-treated plot)
[3]; 400 ppm
  controlling index: 4 (Area of lesions, number of lesions or area of sporogony is less than 10% of non-treated plot)

## CC(C)=CCN(C)C(=O)c1cccc(-c2c(Cl)ccc(Cl)c2Cl)c1 [1-79]
[1]; 400 ppm
  controlling index: 4 (Area of lesions, number of lesions or area of sporogony is less than 10% of non-treated plot)
[3]; 400 ppm
  controlling index: 4 (Area of lesions, number of lesions or area of sporogony is less than 10% of non-treated plot)

## CN(CC#Cc1ccccc1)C(=O)c1cccc(-c2c(Cl)cccc2Cl)c1 [1-238]
[1]; 400 ppm
  controlling index: 4 (Area of lesions, number of lesions or area of sporogony is less than 10% of non-treated plot)
[3]; 400 ppm
  controlling index: 4 (Area of lesions, number of lesions or area of sporogony is less than 10% of non-treated plot)

## CC#CCN(C)C(=O)c1cccc(-c2c(Cl)ccc(F)c2Cl)c1 [1-234]
[1]; 400 ppm
  controlling index: 4 (Area of lesions, number of lesions or area of sporogony is less than 10% of non-treated plot)
[3]; 400 ppm
  controlling index: 4 (Area of lesions, number of lesions or area of sporogony is less than 10% of non-treated plot)

## CCN(C)C(=O)c1cccc(-c2c(Cl)cccc2Cl)c1 [1-149]
[1]; 400 ppm
  controlling index: 4 (Area of lesions, number of lesions or area of sporogony is less than 10% of non-treated plot)
[3]; 400 ppm
  controlling index: 4 (Area of lesions, number of lesions or area of sporogony is less than 10% of non-treated plot)

## C#CCN(C)C(=O)c1cccc(-c2c(C)cc(C)cc2C)c1 [1-13]
[1]; 400 ppm
  controlling index: 4 (Area of lesions, number of lesions or area of sporogony is less than 10% of non-treated plot)
[3]; 400 ppm
  controlling index: 4 (Area of lesions, number of lesions or area of sporogony is less than 10% of non-treated plot)

## CCN(C)C(=O)c1cccc(-c2c(Cl)ccc(Cl)c2Cl)c1 [1-76]
[1]; 400 ppm
  controlling index: 4 (Area of lesions, number of lesions or area of sporogony is less than 10% of non-treated plot)
[3]; 400 ppm
  controlling index: 4 (Area of lesions, number of lesions or area of sporogony is less than 10% of non-treated plot)

## CN(C(=O)c1cccc(-c2c(Cl)cccc2Cl)c1)c1cccs1 [1-228]
[1]; 400 ppm
  controlling index: 4 (Area of lesions, number of lesions or area of sporogony is less than 10% of non-treated plot)
[3]; 400 ppm
  controlling index: 4 (Area of lesions, number of lesions or area of sporogony is less than 10% of non-treated plot)

## CCN(CC)C(=O)c1cccc(-c2c(Cl)ccc(C(F)(F)F)c2Cl)c1 [1-126]
[1]; 100 ppm
  controlling index: 4 (Area of lesions, number of lesions or area of sporogony is less than 10% of non-treated plot)
[3]; 100 ppm
  controlling index: 4 (Area of lesions, number of lesions or area of sporogony is less than 10% of non-treated plot)

## CCNC(=O)c1cccc(-c2c(Cl)ccc(C)c2Cl)c1 [1-93]
[1]; 100 ppm
  controlling index: 4 (Area of lesions, number of lesions or area of sporogony is less than 10% of non-treated plot)
[3]; 100 ppm
  controlling index: 4 (Area of lesions, number of lesions or area of sporogony is less than 10% of non-treated plot)

## Cc1ccc(Cl)c(-c2cccc(C(=O)N(C)C)c2)c1Cl [1-89]
[1]; 100 ppm
  controlling index: 4 (Area of lesions, number of lesions or area of sporogony is less than 10% of non-treated plot)
[3]; 100 ppm
  controlling index: 4 (Area of lesions, number of lesions or area of sporogony is less than 10% of non-treated plot)

## C=C(Cl)CN(C)C(=O)c1cccc(-c2c(Cl)ccc(Cl)c2Cl)c1 [1-80]
[1]; 200 ppm
  controlling index: 4 (Area of lesions, number of lesions or area of sporogony is less than 10% of non-treated plot)
[3]; 400 ppm
  controlling index: 4 (Area of lesions, number of lesions or area of sporogony is less than 10% of non-treated plot)
